{
  "source": "patent US20170137818A1",
  "about": "“APTAMER INHIBITING BIOLOGICAL ACTIVITY OF AUTOTAXIN BY BINDING WITH AUTOTAXIN, AND USE THEREOF” (RIBOMIC INC., priority 2014, published 2017)",
  "molecular_target": "T1, autotaxin (Homo sapiens, UniProt Q13822)",
  "T1 construct": "His; purchased R&D",
  "assay": "NPP2 inhibitory assay (pNP-TMP substrate)",
  "assay_type": "biochemical",
  "excerpt": "Whether an aptamer inhibits the enzyme activity of autotaxin can be evaluated, for example, by the following test. As a substrate of autotaxin, phosphodiester bond-containing synthetic substrate p-nitrophenyl thymidine 5′-monophosphate (pNP-TMP) (SIGMA) is used. A phosphodiester bond is cleaved by hydrolysis, and p-nitrophenol is liberated. The p-nitrophenol develops a yellow color, and the color is detected. For the assay, a 96-well plate (96-Well EIAsurasshuRIA Polystyrene Plates, Costar) was used, and the amount of the reaction mixture was 200 μL. […] A plate containing the reaction mixture was heated at 37° C. for 24 hr, placed in a microplate reader SpectraMax190 (manufactured by Molecular Devices) and the absorbance was determined at wavelength 405 nm. The absorbance when nucleic acid is not added as 100% (A0), an enzyme activity rate was determined from the absorbance (A) of each test substance and according to the following formula. […]\nWhether these nucleic acids show an autotaxin inhibitory activity was evaluated by the following method. […] The p-nitrophenol develops a yellow color, and the color is detected. […] A plate containing the reaction mixture was heated at 37° C. for 24 hr, placed in a microplate reader SpectraMax190 (manufactured by Molecular Devices) and the absorbance was determined at wavelength 405 nm. […]",
  "note": "Some results were stated once for a whole list of compounds, not compound by compound.",
  "data": [
    {"substance": "27 (TACGCTCGGAACCGAGGCAATTGGTCAGCGTG; DNA, backbone and methylation of C not given here) [compound 27]", "values": [
      {"measurement": "IC50", "result": "≤ 100", "unit": "nM"}
    ]},
    {"substance": "29 (GCTGGCCGGAACCGTGCATATGGTCGCCAGC; DNA, backbone and methylation of C not given here) [compound 29]", "values": [
      {"measurement": "IC50", "result": "≤ 100", "unit": "nM"}
    ]}
  ]
}
